Sequences and labels used below:
B1: ribosomal protein S11 (chloroplast) [Pinus massoniana] (protein, UniProt G8IZ58 1-130)
chain: MSKTIKRIGSRRNEHRVLKGVIYVQASFNNTIVTATDVRGQVISWSSAGACGFKGTRRGTPFAAQTAAENVIRALMDRGMERVEVMISGPGRGRDTALRTIRRSGILLSFVRDVTPMPHNGCRPPKKRRV
B2: photosytem I subunit VII (chloroplast) (protein, UniProt G8IZ81 1-81)
chain: MAHSVKIYDTCIGCTQCVRACPTDVLEMIPWEGCKAKQIASAPRTEDCVGCKRCESACPTDFLSVRVYLWHETTRSMGLAY
B3: ribosomal protein L2 (chloroplast) [Pinus massoniana] (protein, UniProt G8IZ67 1-276)
chain: MAIRSYRILTPDTRNRSVSGFDGRVQLDPQKKLTSGQHHCGKGRNGRGIITARHRGGGHKRLYRQIDFRRNKEHISGEIVTIEYDPNRSAYICKVHYKNGDKMYILHPRGVMIGDTILSGPKAPISIGNALPLTNMPLGTAIHNIEITLGKGGQLARAAGAVAELIAKEDRSATLRLPSGEVRLISENCSATIGQVGNITANNRSFGKAGAKRWLGKRSEVRGVAMNPVDHPHGGGEGRTPIGRKKPVTPWGYSALGKKSRKRNRYSDASILRRRE
B4: hypothetical chloroplast RF68 (chloroplast) [Pinus massoniana] (protein, UniProt R4L001 1-75)
chain: MAYSSCLFEPGFGTELILRRIDGAIQVRSNTDPTFYSFVDLGGPGVPVVIHLGSSLLENPYIPYQCMDGYLSGTG
B5: ATP synthase CF1 beta subunit (protein, UniProt G8IZ48 1-492)
chain: MRKNPLVLGVSARVEKNVGRIAQIIGPVLDVSFPPGNMPNIYNSLIVKGQGTAGQEIQVTCEVQQLLGNHKVRAVAMSATDGLTRGMRVIDTGAPLSVPVGGATLGRIFNVLGEPVDNLGPVDARITSPIHRPAPAFTELDTKLSIFETGIKVVDLLAPYRRGGKIGLFGGAGVGKTVLIMELINNIAKAHGGVSVFGGVGERTREGNDLYMEMKESGVIDEQKISESKVALVYGQMNEPPGARMRVGLTALTMAEYFRDVNEQDVLLFIDNIFRFVQAGSEVSALLGRMPSAVGYQPTLSTEMGSLQERITSTKKGSITSIQAVYVPADDLTDPAPATTFAHSDATTVLSRGLAAKGIYPAVDPLDSTSTMLQPWIVGEEHYETAQGVKQTLQRYKELQDIIAIPGLDELSEEDRLIVARARKIERFLSQPFFVAEVFTGSPGKYVGLMETIRGFQMILSGELDGLIEQSFYLVGNIDEATAKAINSNMES
B6: cytochrome b6 (chloroplast) [Pinus massoniana] (protein, UniProt G8IZ55 1-215)
chain: MGKVYDRFEERLEIQAIADDITSKYVPPHVNIFYCLGGITLTCFLVQVATGFAMTFYYRPTVTEAFASVQYLMTEVNFGWLIRSIHRWSASMMVLMMILHVFRVYLTGGFKKPRELTWVTGVILAVLTVSFGVTGYSLPWDQIGYWAVKIVTGVPEAIPVIGSPLVELLRGSVSVGQSTLTRFYSLHTFILPLLTAVFMPMHFLMIRKQGIPGPL
B7: ATP synthase CF1 epsilon subunit (chloroplast) [Pinus massoniana] (protein, UniProt G8IZ49 1-137)
chain: MTLNLRVLSPNRVIWDSEVKEIILSTNSGQIGVLPNHASLVAAVDIGVMKIRLNGQWSTMAMMGGFAKIDSDRITILVNNAERDVDIDPQEAQENFRIAKADLARAEGKRQAIEADLALKRARTRLEAINASPPVSN

These are yes or no findings as the source states them, for the method shown. In cells and extracts the contact can be indirect. These calls come from enrichment with a bait or labelling near it, and not all partners need be listed.

The experiment addresses PmACRE1 protein (Avr9/Cf-9 rapidly elicited 1) of Pinus massoniana (Pinus massoniana (endogenous in needles)). The experiment in a line: affinity purification with mass spectrometry; co-IP: specific anti-PmACRE1 antibody on Protein A/G magnetic beads, incubated overnight at 4 °C with natural soluble proteins of P. massoniana needles collected 3 and 5 days after pine wood nematode infection; eluate on SDS-PAGE, bands digested, HPLC-MS/MS.
As to B1, the binding entry is recorded as “binds”.
For the molecule B2, the binding result is “binds”.
Regarding B3, the binding result is given as “binds”.
The entry for B4 is “binds”.
As for B5, the binding result is given as “binds”.
Turning to B6, the binding entry was “binds”.
Turning to B7, the binding result was “binds”.

For the origin of these results see article PMC11479228.
